No constants are given. Whether binding was seen depends on the method and setting. In cells and extracts the contact can be indirect. A yes stands for co-enrichment or nearness to the bait. Other partners may have been found. Where a sequence is shown, tags or fusion partners need not be part of it.
Experiments:
Assay in all cases: affinity purification with mass spectrometry; FLAG-HA tandem purification from high-salt (400 mM KCl) nuclear extracts of HeLa S3 stably expressing the FH-tagged bait, dialysed to KETNG150; eluate analysed by mass spectrometry; empty vector as control
[1] = target: T1, FLAG-HA-C1orf109, stably expressed in HeLa S3 (human) (UniProt Q9NX04)
T1 sequence: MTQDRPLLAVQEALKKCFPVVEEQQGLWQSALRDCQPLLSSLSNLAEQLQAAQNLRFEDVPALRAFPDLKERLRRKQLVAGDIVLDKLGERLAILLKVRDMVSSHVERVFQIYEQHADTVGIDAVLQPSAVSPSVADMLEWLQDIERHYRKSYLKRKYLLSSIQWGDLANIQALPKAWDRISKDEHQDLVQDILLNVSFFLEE

[2] = target: T2, FLAG-HA-CINP, stably expressed in HeLa S3 (human) (UniProt Q9BW66)
T2 sequence: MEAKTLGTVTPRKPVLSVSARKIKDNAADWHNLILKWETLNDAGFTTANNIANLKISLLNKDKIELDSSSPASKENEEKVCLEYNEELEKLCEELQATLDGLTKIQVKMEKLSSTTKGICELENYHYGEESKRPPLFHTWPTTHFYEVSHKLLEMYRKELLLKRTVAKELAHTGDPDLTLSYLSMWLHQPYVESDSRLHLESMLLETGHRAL

[3] = target: T3, FLAG-HA-POLD3, stably expressed in HeLa S3 (human) (UniProt Q15054)
T3 sequence: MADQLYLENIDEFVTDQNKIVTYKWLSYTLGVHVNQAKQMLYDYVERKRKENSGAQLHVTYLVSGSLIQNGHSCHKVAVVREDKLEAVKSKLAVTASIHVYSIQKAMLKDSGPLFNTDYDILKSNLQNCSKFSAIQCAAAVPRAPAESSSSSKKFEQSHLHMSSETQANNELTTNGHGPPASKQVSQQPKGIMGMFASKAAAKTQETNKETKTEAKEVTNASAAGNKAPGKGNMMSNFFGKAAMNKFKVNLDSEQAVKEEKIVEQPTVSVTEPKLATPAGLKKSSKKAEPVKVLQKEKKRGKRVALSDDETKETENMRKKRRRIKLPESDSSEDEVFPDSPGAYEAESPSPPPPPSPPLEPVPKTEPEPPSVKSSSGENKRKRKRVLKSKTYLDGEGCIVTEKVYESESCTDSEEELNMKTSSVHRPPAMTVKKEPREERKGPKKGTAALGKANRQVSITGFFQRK

Measured: binding

B1: SPATA5 (HeLa S3 nuclear extract) (enzyme, UniProt Q8NB90 1-893)
chain: MSSKKNRKRLNQSAENGSSLPSAASSCAEARAPSAGSDFAATSGTLTVTNLLEKVDDKIPKTFQNSLIHLGLNTMKSANICIGRPVLLTSLNGKQEVYTAWPMAGFPGGKVGLSEMAQKNVGVRPGDAIQVQPLVGAVLQAEEMDVALSDKDMEINEEELTGCILRKLDGKIVLPGNFLYCTFYGRPYKLQVLRVKGADGMILGGPQSDSDTDAQRMAFEQSSMETSSLELSLQLSQLDLEDTQIPTSRSTPYKPIDDRITNKASDVLLDVTQSPGDGSGLMLEEVTGLKCNFESAREGNEQLTEEERLLKFSIGAKCNTDTFYFISSTTRVNFTEIDKNSKEQDNQFKVTYDMIGGLSSQLKAIREIIELPLKQPELFKSYGIPAPRGVLLYGPPGTGKTMIARAVANEVGAYVSVINGPEIISKFYGETEAKLRQIFAEATLRHPSIIFIDELDALCPKREGAQNEVEKRVVASLLTLMDGIGSEVSEGQVLVLGATNRPHALDAALRRPGRFDKEIEIGVPNAQDRLDILQKLLRRVPHLLTEAELLQLANSAHGYVGADLKVLCNEAGLCALRRILKKQPNLPDVKVAGLVKITLKDFLQAMNDIRPSAMREIAIDVPNVSWSDIGGLESIKLKLEQAVEWPLKHPESFIRMGIQPPKGVLLYGPPGCSKTMIAKALANESGLNFLAIKGPELMNKYVGESERAVRETFRKARAVAPSIIFFDELDALAVERGSSLGAGNVADRVLAQLLTEMDGIEQLKDVTILAATNRPDRIDKALMRPGRIDRIIYVPLPDAATRREIFKLQFHSMPVSNEVDLDELILQTDAYSGAEIVAVCREAALLALEEDIQANLIMKRHFTQALSTVTPRIPESLRRFYEDYQEKSGLHTL
binds: all assays above

B2: SPATA5L1 (HeLa S3 nuclear extract) (enzyme, UniProt Q9BVQ7 1-753)
chain: MAPDSDPFPEGPLLKLLPLDARDRGTQRCRLGPAALHALGARLGSAVKISLPDGGSCLCTAWPRRDGADGFVQLDPLCASPGAAVGASRSRRSLSLNRLLLVPCPPLRRVAVWPVLRERAGAPGARNTAAVLEAAQELLRNRPISLGHVVVAPPGAPGLVAALHIVGGTPSPDPAGLVTPRTRVSLGGEPPSEAQPQPEVPLGGLSEAADSLRELLRLPLRYPRALTALGLAVPRGVLLAGPPGVGKTQLVRAVAREAGAELLAVSAPALQGSRPGETEENVRRVFQRARELASRGPSLLFLDEMDALCPQRGSRAPESRVVAQVLTLLDGASGDREVVVVGATNRPDALDPALRRPGRFDREVVIGTPTLKQRKEILQVITSKMPISSHVDLGLLAEMTVGYVGADLTALCREAAMHALLHSEKNQDNPVIDEIDFLEAFKNIQPSSFRSVIGLMDIKPVDWEEIGGLEDVKLKLKQSIEWPLKFPWEFVRMGLTQPKGVLLYGPPGCAKTTLVRALATSCHCSFVSVSGADLFSPFVGDSEKVLSQIFRQARASTPAILFLDEIDSILGARSASKTGCDVQERVLSVLLNELDGVGLKTIERRGSKSSQQEFQEVFNRSVMIIAATNRPDVLDTALLRPGRLDKIIYIPPPDHKGRLSILKVCTKTMPIGPDVSLENLAAETCFFSGADLRNLCTEAALLALQENGLDATTVKQEHFLKSLKTVKPSLSCKDLALYENLFKKEGFSNVEGI
binds: all assays above

Source: PMC11055677
